The record followed here is PubChem BioAssay AID1794844 (National Center for Advancing Translational Sciences (NCATS), 2023).

Amino acid sequences for entries named in this document (tags omitted). A change or cut given only in a name is not applied to a line headed by its entry.
UniProt C7C422: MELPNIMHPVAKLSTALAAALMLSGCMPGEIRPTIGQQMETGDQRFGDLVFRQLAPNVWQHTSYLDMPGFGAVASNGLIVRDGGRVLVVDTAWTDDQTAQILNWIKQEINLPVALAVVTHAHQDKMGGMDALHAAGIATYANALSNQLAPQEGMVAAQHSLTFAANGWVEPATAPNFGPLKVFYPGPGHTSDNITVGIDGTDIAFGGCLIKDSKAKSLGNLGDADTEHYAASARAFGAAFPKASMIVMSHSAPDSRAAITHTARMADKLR

In all, about 2,800 compounds went through this assay and fewer than 10 were called active. Inconclusive results (about 7%) are left out. Calls come from the whole dose curve; as a rule, active = well fitted inhibition curve with a large enough effect; inconclusive = small, poorly fitted or top-dose-only effect; inactive = no such curve, though single readings can be large or run the other way. Some of the results follow.

The assay has as its target Metallo-beta-lactamase type 2 (Klebsiella pneumoniae) (UniProt C7C422). Put plainly: qHTS to identify inhibitors of the New Delhi Metallo-beta-lactamase (NDM): Nitrocefin screen against the machine-based learning selections. Note: % of control where 0% means no effect. The following applies: NDM-1 enzyme, nitrocefin hydrolysis, absorbance 485 nm; activity, negative = inhibition: at the top concentration. Summed up:
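Hydrolysis by 2 nM NDM-1 was followed by absorbance after >30 min compound preincubation in HEPES pH 7.0 buffer with 1 uM Zn2SO4. For nitrocefin (16.7 uM, 15 min, 485 nm) and meropenem (50 uM, 30 min, 300 nm), each substrate ran on separate plates.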
(Quantitative high-throughput screening tests each substance at several concentrations.)
As for `COc1ccc([C@H]2C[C@@H](O)[C@@H](O)[C@@H]2NC(=O)C2CCC2)cc1`, the “activity, negative = inhibition” value is inactive: 2.58% [at 57.5 µM]. `Cc1ccc(CN2C(=O)[C@@H]3C[C@@H](O)CN3C3(CN(C4Cc5ccccc5C4)C3)C2=O)o1`: the “activity, negative = inhibition” value is inactive: -4.44% [at 57.5 µM]. For `CC(=O)N1C[C@@H]2CCCN3CCC[C@@H]([C@H]23)[C@H]1CCCC(=O)N(C)Cc1ccc(N2CCOCC2)cc1` the value was inactive: 0.217%; for `O=C(O)Cn1ccc2cc(OCc3cccc(-c4ccc(F)cc4F)c3)cnc21`, inactive: -2.25% [at 57.5 µM]. With `Cc1noc(C)c1C(=O)N[C@H]1[C@H](O)[C@H](O)C[C@@H]1c1cccnc1` the figure was inactive: 1.22% [at 57.5 µM]; with `COCCC1(NS(C)(=O)=O)CCN(C(=O)c2cccc(C#N)c2)CC1`, inactive: 0.573%; with `O=C(c1ccoc1)N1CCCC(CCc2ccc(F)c(F)c2)C1` (configuration not stated), inactive: -0.0995%. Turning to `Cn1cc(CN2CCOC[C@H]2c2nc(C(C)(C)C)co2)c2ccccc21`, the “activity, negative = inhibition” value is inactive: -0.956% [at 57.5 µM].

For the compound `O=C(N[C@H](c1ccccn1)C1CC(O)C1)c1ccc2c(c1)ncn2CCO` (some centres not stated), the “activity, negative = inhibition” value was inactive: 5.03%. For `CCN1c2cc(C(=O)Nc3ccc(C)c(C)c3)ccc2C(=O)N2CCCCC21` (configuration not stated) the value was inactive: 0.646%; for `CO[C@@H]1CO[C@H]2[C@@H]1OC[C@@H]2NC(=O)Nc1cccc(C(F)(F)F)c1`, inactive: 10.1% [at 57.5 µM]; for `Cc1nn(-c2ccccc2)nc1C(=O)N[C@H](C)c1onc(-c2cccnc2)c1C(=O)O`, inactive: -11.3%.

With `Cc1cc(C)n2ncc(CN3CCCC3c3nc(-c4ccncc4)no3)c2n1` (configuration not stated), the “activity, negative = inhibition” value was inactive: -3.22%. As to `O=C(O)C[C@@H]1CCN(C(=O)C2CCCC2)C[C@@H]1CCN1CCN(c2ccccn2)CC1`, the “activity, negative = inhibition” value was inactive: -8.42% [at 57.5 µM]. `O=C1NC[C@@H](CCC(=O)N2CCCC2)N2C[C@@H](NCc3cccc(Cl)c3)C[C@@H]12`: the “activity, negative = inhibition” value was inactive: 0.771% [at 57.5 µM]. `CCCN(C)c1nccnc1OC1CCN(C(=O)c2ccc(OC)nc2OC)C1` (configuration not stated): the “activity, negative = inhibition” value was inactive: -7.38%. With `CC(=O)N1CCN(C(=O)C[C@@H]2CCNC[C@@H]2Cc2cc(-c3ccccc3)on2)CC1` the figure was inactive: 5.04% [at 57.5 µM]; with `O=C(NCc1ccccc1F)C1CCN(C(=O)c2ncn3c2COC(c2ccccc2)C3)CC1` (configuration not stated), inactive: 0.463%. On to `Cc1cc(CNC(=O)[C@@H]2CCC[C@@H](NCc3nccs3)CN(C)C(=O)C2)no1`, for which the “activity, negative = inhibition” value is inactive: 1.41% [at 57.5 µM]. With `O=C(O)C[C@@H]1CCN(C(=O)C2CCCCC2)C[C@@H]1CCN1CCOCC1` the figure was inactive: -23.9% [at 57.5 µM]; with `O=C(CC[C@@H]1CNC(=O)[C@@H]2C[C@H](NC(=O)Nc3ccsc3)CN12)NCc1cccs1`, inactive: -10.4%. On to `CCCn1cc(S(=O)(=O)N2C[C@H](C3CC3)[C@@H](N)C2)cn1`, for which the “activity, negative = inhibition” value is inactive: -1.58%. Take `O=C(O)c1ccc(CC2CCN(Cc3ccncc3)C2)cc1` (configuration not stated): the “activity, negative = inhibition” value was inactive: -1.88%. On to `COc1ccc(C(=O)N[C@@H]2CCC[C@@H]2C(=O)N2CCN(C(=O)c3ccco3)CC2)cn1`, for which the “activity, negative = inhibition” value was inactive: -4.54%. As for `OCC1CN(Cc2cccnc2)CCC12CCN(Cc1cccc(O)c1)CC2` (configuration not stated), the “activity, negative = inhibition” value was inactive: 10.4%. Turning to `Cc1cc(C(=O)NCCc2csc(-c3cccnc3)n2)cc(S(N)(=O)=O)c1C`, the “activity, negative = inhibition” value is inactive: 340%. As for `CCOc1ccc(NC(=O)Cn2c(N3CCc4ccccc4C3)nc(C)cc2=O)cc1`, the “activity, negative = inhibition” value is inactive: 0.401%. For `O=C(NCc1nc(-c2cnccn2)n[nH]1)[C@H]1CNC[C@H](C(=O)N2CCOCC2)C1` the value was inactive: -7.62%; for `COc1ccccc1CNC(=O)c1c(OCC(C)C)cc(=O)n2c1CCCCC2`, inactive: 3.75%; for `Cc1ccc(C2Cn3nnc(-c4noc(-c5ccncc5)n4)c3CO2)cc1` (configuration not stated), inactive: -1.26%. Consider `O=C(Cc1ccccc1O)NCc1cccnc1Oc1ccc(F)cc1F`, for which the “activity, negative = inhibition” value was inactive: 3.43%. As for `CN1CCN(S(=O)(=O)c2cccc(C(=O)N3C[C@@H]4CCN[C@@H]4C3)c2)CC1`, the “activity, negative = inhibition” value is inactive: -7.19%. On to `COc1ccc(CN2CCNc3cc(-c4ccccc4)ncc3C2)cc1O`, for which the “activity, negative = inhibition” value is inactive: -12.7% [at 57.5 µM]. As for `COc1ccc(CCC(=O)N2CCC(N3CC4CC(C3)[C@H]3CCCC(=O)N3C4)CC2)cc1` (some centres not stated), the “activity, negative = inhibition” value was inactive: 1.84%. With `CC1=C[C@@H](CNCc2ccncc2)[C@H](C(C)C)C[C@H]1Cc1nnc(-c2ccc([N+](=O)[O-])cc2)o1`, the “activity, negative = inhibition” value is inactive: -2.19%. Regarding `Cc1cccc(-c2noc([C@@H]3Cc4nc[nH]c4CN3C(=O)COCC(=O)O)n2)c1`, the “activity, negative = inhibition” value was inactive: 6.01% [at 57.5 µM]. Consider `CC(=O)N1CCC(N[C@H]2C[C@@H](Cc3cc(CN(C)C)on3)C2(C)C)CC1`, for which the “activity, negative = inhibition” value is inactive: -7.61% [at 57.5 µM].

Regarding `COc1ccccc1CN1CCC2(CC1)CC(C(=O)O)N(C(C)=O)C2` (configuration not stated), the “activity, negative = inhibition” value is inactive: -1.38%. For `Cc1ccc2c(c1)N1C(=O)OC[C@@H]1CCN(C(=O)NC1CCCCC1)C2`, the “activity, negative = inhibition” value was inactive: -2.65% [at 57.5 µM].

For the compound `CC(Cn1cncn1)NC(=O)c1ccc(S(=O)(=O)NCCO)cc1` (configuration not stated), the “activity, negative = inhibition” value is inactive: -2.99%. As for `CC(=O)N1CCC(N[C@H]2CC(C)(C)[C@@H]3C[C@@](C)(O)CC[C@]23CCC(=O)NCCN2CCOCC2)CC1`, the “activity, negative = inhibition” value was inactive: 2.2%.

As to `CC(C)N1C[C@H](O)C[C@H]1c1nc(-c2ccc(C(F)(F)F)cc2)no1`, the “activity, negative = inhibition” value was inactive: -6.71% [at 57.5 µM].

Turning to `COCC(=O)Nc1ccc([C@H]2OCC(=O)N(CC(C)C)[C@@H]2CO)cc1`, the “activity, negative = inhibition” value is inactive: 1.61% [at 57.5 µM]. Take `CC1=C[C@@H](CNCc2ccncc2)[C@H](C(C)C)C[C@H]1Cc1nnc(-c2ccc(C)cc2)o1`: the “activity, negative = inhibition” value was inactive: 6.34% [at 57.5 µM].

Regarding `COc1ccc(NC(=O)N[C@H]2CO[C@H]3[C@@H]2OC[C@@H]3n2cc(CN(C)Cc3ccccc3)nn2)cc1`, the “activity, negative = inhibition” value was inactive: 0.93%. For the compound `CNc1ccc(-c2noc([C@@H]3CCCN3Cc3cccnc3)n2)cn1`, the “activity, negative = inhibition” value was inactive: 1.06% [at 57.5 µM]. Regarding `CS(=O)(=O)NC[C@H]1O[C@@H](CC(=O)N2CCN(c3ccccn3)CC2)[C@H](O)[C@@H]1O`, the “activity, negative = inhibition” value is inactive: -1.35% [at 57.5 µM].
